Results deposited as PubChem BioAssay AID504784 (Drosophila RNAi Screening Center, 2011).
The screen tested about 17,000 reagents; this is a random part of those with a known target gene and a result. 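Each column is one replicate's B-score; the combined score over replicates was not deposited, so single values may mislead.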 Further read-outs or replicates are left out here.

Aim: 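Fly genes whose silencing alters how much lipid cells keep in droplets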 (primary screen)
Cells: Drosophila Kc167 embryonic cells
Knock-down reagent: long dsRNA against Drosophila genes, about 250 ng dsRNA per well
Duration: 4 days
Conditions: cells fed 400 µM oleic acid bound to BSA
Measurement: 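Cells imaged and segmented; ratio of lipid droplet area to nuclear area, log-transformed, then normalised as a B-score over the screen; higher means more stored lipid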
Direction: droplet/nuclear area B-score: higher = more stored lipid (overstorage)

Tango8 (Transport and Golgi organization 8) [DRSC06474] — droplet/nuclear area B-score, replicate 1: -0.473
clos (closca) [DRSC06240] — droplet/nuclear area B-score, replicate 1: -0.781
clos (closca) [DRSC06241] — droplet/nuclear area B-score, replicate 1: 0.00267
clos (closca) [DRSC06778] — droplet/nuclear area B-score, replicate 1: -0.903
clos (closca) [DRSC21857] — droplet/nuclear area B-score, replicate 1: 0.834
clos (closca) [DRSC22942] — droplet/nuclear area B-score, replicate 1: -0.608
Obp56b (Odorant-binding protein 56b) [DRSC06551] — droplet/nuclear area B-score, replicate 1: 0.103
ttk (tramtrack) [DRSC14078] — droplet/nuclear area B-score, replicate 1: -1.54
ttk (tramtrack) [DRSC17091] — droplet/nuclear area B-score, replicate 1: 2.64

Next part, starting with the last 2 of the part before.
ttk (tramtrack) [DRSC14078] — droplet/nuclear area B-score, replicate 1: -1.54
ttk (tramtrack) [DRSC17091] — droplet/nuclear area B-score, replicate 1: 2.64
E2f1 (E2F transcription factor 1) [DRSC16655] — droplet/nuclear area B-score, replicate 1: 1.71
CG31782 (retired record) [DRSC01554] — droplet/nuclear area B-score, replicate 1: 0.0747
CG31782 (retired record) [DRSC01556] — droplet/nuclear area B-score, replicate 1: -0.293
Slbp (Stem-loop binding protein) [DRSC16863] — droplet/nuclear area B-score, replicate 1: -1.09
CG30039 [DRSC21794] — droplet/nuclear area B-score, replicate 1: 1.15
CG13875 [DRSC08345] — droplet/nuclear area B-score, replicate 1: 0.187
Ugalt (UDP-galactose transporter) [DRSC18467] — droplet/nuclear area B-score, replicate 1: -0.463
